In publication PMC10372749:
Results are given in words; binding and its absence hold for the method and conditions named. In cells and extracts the contact can be indirect. These calls come from enrichment with a bait or labelling near it, and not all partners need be listed.

Amino acid sequences for entries named in this document (tags omitted).
UniProt P03182: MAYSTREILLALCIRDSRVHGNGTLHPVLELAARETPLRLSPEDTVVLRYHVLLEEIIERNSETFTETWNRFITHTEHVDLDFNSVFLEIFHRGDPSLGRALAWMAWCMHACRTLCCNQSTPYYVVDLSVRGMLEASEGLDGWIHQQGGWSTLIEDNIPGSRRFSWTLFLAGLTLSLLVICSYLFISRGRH
UniProt Q7Z434: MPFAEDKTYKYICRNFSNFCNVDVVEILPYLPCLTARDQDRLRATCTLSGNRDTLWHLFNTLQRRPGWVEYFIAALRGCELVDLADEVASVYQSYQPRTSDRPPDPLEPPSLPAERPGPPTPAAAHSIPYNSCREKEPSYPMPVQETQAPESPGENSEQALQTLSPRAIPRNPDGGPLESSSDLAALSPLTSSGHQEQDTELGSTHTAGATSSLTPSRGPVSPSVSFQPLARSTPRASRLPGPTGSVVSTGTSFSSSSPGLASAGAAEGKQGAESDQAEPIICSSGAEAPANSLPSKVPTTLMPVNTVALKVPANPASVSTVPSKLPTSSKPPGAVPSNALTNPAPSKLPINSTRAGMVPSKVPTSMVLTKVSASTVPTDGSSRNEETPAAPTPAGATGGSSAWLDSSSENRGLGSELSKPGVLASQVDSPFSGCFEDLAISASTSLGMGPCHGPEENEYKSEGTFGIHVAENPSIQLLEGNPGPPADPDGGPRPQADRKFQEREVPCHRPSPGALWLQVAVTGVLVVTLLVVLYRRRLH

Experiments:
Experiment in all cases: affinity purification with mass spectrometry
[1] = biological target: EBV BHRF1, HA-tagged (pLIX402-BHRF1) (Epstein-Barr virus (type I)) (UniProt P03182)
[2] = biological target: EBV tegument protein BGLF2, HA-tagged (pLIX402-BGLF2) (Epstein-Barr virus (type I))
[3] = biological target: T1, EBV viral helicase BBLF4 (Epstein-Barr virus (type I)) (UniProt P03214)
T1 sequence: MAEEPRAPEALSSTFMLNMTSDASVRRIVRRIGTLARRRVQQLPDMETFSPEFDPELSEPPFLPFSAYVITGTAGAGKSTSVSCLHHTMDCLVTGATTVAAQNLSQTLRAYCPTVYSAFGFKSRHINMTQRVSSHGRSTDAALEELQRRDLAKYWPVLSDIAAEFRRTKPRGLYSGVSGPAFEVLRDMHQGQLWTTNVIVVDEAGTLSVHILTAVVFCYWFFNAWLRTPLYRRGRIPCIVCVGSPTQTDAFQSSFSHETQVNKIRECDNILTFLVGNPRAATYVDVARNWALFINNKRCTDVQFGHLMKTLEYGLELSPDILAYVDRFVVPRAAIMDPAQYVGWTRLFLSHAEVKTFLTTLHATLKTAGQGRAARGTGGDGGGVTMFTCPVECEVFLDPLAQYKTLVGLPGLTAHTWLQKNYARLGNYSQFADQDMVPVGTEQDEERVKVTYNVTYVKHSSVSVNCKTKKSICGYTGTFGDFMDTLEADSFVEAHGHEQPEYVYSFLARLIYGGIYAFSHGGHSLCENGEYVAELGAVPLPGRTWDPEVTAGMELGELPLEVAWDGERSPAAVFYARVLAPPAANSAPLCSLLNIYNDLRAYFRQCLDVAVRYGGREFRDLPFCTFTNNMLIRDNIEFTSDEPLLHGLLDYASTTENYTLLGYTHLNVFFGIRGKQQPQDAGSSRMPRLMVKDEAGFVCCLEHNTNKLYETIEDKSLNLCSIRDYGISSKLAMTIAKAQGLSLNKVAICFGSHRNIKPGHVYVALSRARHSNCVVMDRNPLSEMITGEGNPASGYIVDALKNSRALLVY

Molecule: mitochondrial antiviral-signaling protein (MAVS), endogenous (from UniProt Q7Z434 1-540)
- binding [1]: binds

B1: GMIP, endogenous (protein, UniProt Q9P107 1-970)
chain: MDAAEPGLPPGPEGRKRYSDIFRSLDNLEISLGNVTLEMLAGDPLLSEDPEPDKTPTATVTNEASCWSGPSPEGPVPLTGEELDLRLIRTKGGVDAALEYAKTWSRYAKELLAWTEKRASYELEFAKSTMKIAEAGKVSIQQQSHMPLQYIYTLFLEHDLSLGTLAMETVAQQKRDYYQPLAAKRTEIEKWRKEFKEQWMKEQKRMNEAVQALRRAQLQYVQRSEDLRARSQGSPEDSAPQASPGPSKQQERRRRSREEAQAKAQEAEALYQACVREANARQQDLEIAKQRIVSHVRKLVFQGDEVLRRVTLSLFGLRGAQAERGPRAFAALAECCAPFEPGQRYQEFVRALRPEAPPPPPPAFSFQEFLPSLNSSPLDIRKKLSGPLPPRLDENSAEPGPWEDPGTGWRWQGTPGPTPGSDVDSVGGGSESRSLDSPTSSPGAGTRQLVKASSTGTESSDDFEERDPDLGDGLENGLGSPFGKWTLSSAAQTHQLRRLRGPAKCRECEAFMVSGTECEECFLTCHKRCLETLLILCGHRRLPARTPLFGVDFLQLPRDFPEEVPFVVTKCTAEIEHRALDVQGIYRVSGSRVRVERLCQAFENGRALVELSGNSPHDVSSVLKRFLQELTEPVIPFHLYDAFISLAKTLHADPGDDPGTPSPSPEVIRSLKTLLVQLPDSNYNTLRHLVAHLFRVAARFMENKMSANNLGIVFGPTLLRPPDGPRAASAIPVTCLLDSGHQAQLVEFLIVHYEQIFGMDELPQATEPPPQDSSPAPGPLTTSSQPPPPHLDPDSQPPVLASDPGPDPQHHSTLEQHPTATPTEIPTPQSDQREDVAEDTKDGGGEVSSQGPEDSLLGTQSRGHFSRQPVKYPRGGVRPVTHQLSSLALVASKLCEETPITSVPRGSLRGRGPSPAAASPEGSPLRRTPLPKHFEITQETARLLSKLDSEAVPRATCCPDVQPEEAEDHL
- binding [2]: binds

B2: EBV primase BSLF1 (enzyme, UniProt P03193 1-874)
chain: MSAPVVIKALVASNTDIAEAILDAILSRPDEGFRLFCLCHNASPLHHVAGSLVELQLHLPKKRLTSQSRCGLVLTLHLPAEEAFPFLRGLTPLTADRLSTYLDRAGALRSLTPLVELLTLSAKKQPQGDARGRVAWLRPKIVGCLRRIYRVNISARWFISTFGSHEAQFVLVTAAYYFWGIPCTIETLAHLTELFTSESGQSLAAVTSLAELGEVFGSSAWAEQTEAFAHFAHEKLRRDSREIRAVARTIDAYRGRLPLASADLVRYVYLAHAQCFNEGTFKRYSQLTSMGEIGCLPSGGVVLPSLLDRGFAEHMRTYFTRETYLAEHVRVQQLKIRMEPPAPYTWDPDPDDGLMRAWAGLSVDVARELVELARWHADEGPTYPPTLQGFLCLAGQATCRGQWNPKEQFLPPTVLRRVQRLPVFLCHFADRHYFVMTAADPFSSHLAEVVSTPTNCRLPDTCLTRALSYTPVYYSQNSLSEQLFVSRHEYFNPRLPVCNLVLDLDLKIKGAPWSLEEIYDLCRTVRREVLRLMRRLGPVSRAHPVYFFKSACPPADPDNMEDVLPFCICTGKLGFRVITPLPRGHAIVGTSAVQGFVSVLQKLMGLTACLRRMRHKIKEIGAPLFDSGVYHAGRCIRLPHTYKVDRGGGLSRQLRLFVCHPEEEDKHSYVKNALNIQNLLHHSLHVGWPAPKTFCYHIADDGRDYLIQRTRETLPPTVENVCAMIEGHLGLDLVAWVSSCIWPSLMSTLATAVPEDKFPQFLHVTFEQTGPNLVQVCHARGRNFACLRHTHRASSKNVRVFLVLYYTSQAITVTFMSQCFAGRCGANQPTAHFSISVPASRIINRAEASQDSTTSQLARRRDRQDGSFSETLPN
- binding [3]: binds
